Measured data: PubChem BioAssay AID1224830 (NIAID, 2016)

- Test: 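Host factors that control LPS-induced TNF expression in human macrophages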 (primary screen)
- Cell system: human THP-1 monocytic leukaemia cells, TNF dual-luciferase reporter clone, PMA-differentiated to macrophage-like cells
- Reagents: siRNA pool against human genes, 50 nM
- Time to read-out: LPS for 4 h, given about 3 days after siRNA transfection
- Challenge: bacterial LPS (TLR4 ligand), 10 ng/ml
- Measured: 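Ratio of firefly to renilla light, scaled to the plate median and expressed as a robust z-score per replicate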
- Scale: TNF reporter robust z-score: higher = stronger TNF reporter response to LPS
- Call rule: 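a well is active when its z-score exceeds 2.8 or falls below -1.5; control wells carry no call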
Here is an unselected part of about 18,000 deposited reagents. About 2,900 of them (16%) were called active. 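Calls are made per well; low scores hint the gene aids the LPS response, high scores that it dampens it.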 Repeated entries: four replicate wells of each siRNA pool.

Depletion of ARHGEF39 came out at: TNF reporter robust z-score -0.56; inactive.
Depletion of ARHGEF39 came out at: TNF reporter robust z-score -0.23; inactive.
With knock-down of ARHGEF39, the record shows TNF reporter robust z-score -0.83; inactive.
Depletion of ARHGEF39 came out at: TNF reporter robust z-score 0.38; inactive.
ZNF107 scored TNF reporter robust z-score 1.18; inactive.
Silencing of ZNF107 resulted in: TNF reporter robust z-score 3.13; active.
ZNF107 gave TNF reporter robust z-score 1.38; inactive.
Against ZNF107, the entry reads TNF reporter robust z-score 1.77; inactive.
Against SELE the deposit lists TNF reporter robust z-score 0.16; inactive.
SELE showed TNF reporter robust z-score -0.07; inactive.
After knock-down of SELE, the record shows TNF reporter robust z-score 0.68; inactive.
Knock-down of SELE gave: TNF reporter robust z-score -0.27; inactive.

2 entries from above, reformatted.
{"gene knocked down":"ZNF107","TNF reporter robust z-score":1.18,"call":"inactive"}
{"gene knocked down":"ZNF107","TNF reporter robust z-score":3.13,"call":"active"}

Further results follow.
With knock-down of GSTK1 the results were inactive.
With knock-down of GSTK1, the record shows TNF reporter robust z-score 5.63; active.
With knock-down of GSTK1, the screen gave TNF reporter robust z-score 3.48; active.
For GSTK1, the values are TNF reporter robust z-score 4.44; active.
After knock-down of GSTK1 the results were TNF reporter robust z-score 6.94; active.
With knock-down of POLDIP3, the screen gave TNF reporter robust z-score -0.58; inactive.
Silencing of POLDIP3 gave: TNF reporter robust z-score -0.84; inactive.
Silencing of POLDIP3 gave: TNF reporter robust z-score -1.07; inactive.
After knock-down of POLDIP3, the screen gave TNF reporter robust z-score -0.53; inactive.
